Test results taken from paper PMC7819943, “Rice protein-binding microarrays: a tool to detect cis-acting elements near promoter regions in rice”.
The list shows a part of the results.

By UniProt entry, the sequences of proteins in these tests, tags left out.
UniProt Q0JBA9, entry or part of it: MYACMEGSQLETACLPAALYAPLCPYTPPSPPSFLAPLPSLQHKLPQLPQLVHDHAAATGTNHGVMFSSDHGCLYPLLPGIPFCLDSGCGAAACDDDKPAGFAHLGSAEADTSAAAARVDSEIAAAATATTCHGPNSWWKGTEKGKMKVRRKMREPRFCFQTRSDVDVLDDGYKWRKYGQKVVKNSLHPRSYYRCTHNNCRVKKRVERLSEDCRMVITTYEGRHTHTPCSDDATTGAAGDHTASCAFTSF

These sequences were tested against OsWRKY34 (Oryza sativa, UniProt Q0JBA9 1-250) (assay: protein-binding microarray (RPBM); PBS, 2% BSA, 51.3 ng/ul salmon testes DNA, 50 uM zinc acetate, 200 nM TF, 25 C, 1 h; high values mean tight binding). Details: protein: recombinant; tags: N-terminal polyhistidine and DsRed monomer fusion (pET32a); label: CyDye5-dUTP incorporated in the synthesized complementary strand; 3' TTTTT single-stranded linker to array surface; dsDNA, one strand shown.
Outline: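 Transcription factors were made in E. coli BL21-CodonPlus as N-terminal fusions to a polyhistidine tag and DsRed, then purified on Ni–NTA. After primer extension with Cy5-dUTP and blocking with 2% BSA, a custom Agilent array was exposed for 1 h at 25 °C to 200 nM protein in PBS, 2% BSA, salmon testes DNA and 50 µM zinc acetate. Washed arrays were scanned on an Axon 4000B, and the binding signal is per-feature fluorescence intensity in arbitrary units.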
“GCATCGTCCTGTGAGTTTCTCTCTGCACCTCCTCTCCTCACGGAGTCACCTAGTGCAG” was tested, and the binding signal was 10200 fluorescence intensity (a.u.).
For “ACTACTCGTCTACTTGCCTACGGGAGGAAGCAATAATCAACGGAGTCACCTAGTGCAG”, the binding signal was 8180 fluorescence intensity (a.u.).
With “CTACATCTTCTCTCGCTATCTCTCTCTGTACTCTCTCTCTCGGAGTCACCTAGTGCAG” the binding signal was 11400 fluorescence intensity (a.u.).
In the case of “CGTCCTTATATAATTGTTTTACTTGGTGATTTCATCTGGTCGGAGTCACCTAGTGCAG”, the binding signal is reported as 64500 fluorescence intensity (a.u.).
With “TTTTCCTGTTTCTGTGGCTATGTCCCGTTTGGTTACGTTCCGGAGTCACCTAGTGCAG” the binding signal was 14200 fluorescence intensity (a.u.).
“ACTTGTTGCTTATCTTCACACACGATCAGATGAAGATTCTCGGAGTCACCTAGTGCAG” was tested, and the binding signal was 10800 fluorescence intensity (a.u.).
In the case of “AGGATTCAATTTGGACTTTGGTGGAGGGGAGGGGCTGCTGCGGAGTCACCTAGTGCAG”, the binding signal is reported as 22100 fluorescence intensity (a.u.).
In the case of “AGCCGTCTCAGCCCCGGCGCCGTCATCTTCCGTCTTAGCCCGGAGTCACCTAGTGCAG”, the binding signal is reported as 8220 fluorescence intensity (a.u.).
“CGACAAATTTTTACCAATACTAATCGTTTTTTTTTTCTCGCGGAGTCACCTAGTGCAG” was tested, and the binding signal was 8160 fluorescence intensity (a.u.).
In the case of “AATCTCTCTCTCGATCCGACTCTGCTCTCTATCCGGCCTCCGGAGTCACCTAGTGCAG”, the binding signal is reported as 9950 fluorescence intensity (a.u.).
With “CGAATATATTTCTGGATTGTGGTTGGTTCTTTTGCTACTGCGGAGTCACCTAGTGCAG” the binding signal was 8380 fluorescence intensity (a.u.).
With “AGTTTGCAATCGCGTCACGTATCCACTCTGAATTCATGTCCGGAGTCACCTAGTGCAG” the binding signal was 9200 fluorescence intensity (a.u.).
In the case of “GTAAGTTTTACTTTCAGTGTATGAACTGTGCCCTGTATTTCGGAGTCACCTAGTGCAG”, the binding signal is reported as 8170 fluorescence intensity (a.u.).
In the case of “AGAGACTGGTGATGGACTTTACTCTTTTCTTCTCCAACACCGGAGTCACCTAGTGCAG”, the binding signal is reported as 8330 fluorescence intensity (a.u.).
In the case of “GAGCAGACACATTCTCTCTCGCTCTCTCTATCTTTTTTTTCGGAGTCACCTAGTGCAG”, the binding signal is reported as 11900 fluorescence intensity (a.u.).
“TTCGCTGCCCGTATACCATTGACCTAGCTTACTACCGTACCGGAGTCACCTAGTGCAG” was tested, and the binding signal was 10000 fluorescence intensity (a.u.).
With “GGAGGGAGTAAGTGTTAAAATATGTGTGTTTTTCTGTAACCGGAGTCACCTAGTGCAG” the binding signal was 8750 fluorescence intensity (a.u.).
In the case of “CCTCGCCGCTTCGCTTCGCTTCACCCTTTTTCGGTTCGCTCGGAGTCACCTAGTGCAG”, the binding signal is reported as 13300 fluorescence intensity (a.u.).
For “TGGATCAGACTTTCCGACCTTATTTCAGTTTTAGTTTCCGCGGAGTCACCTAGTGCAG”, the binding signal was 9500 fluorescence intensity (a.u.).
“AATATTGGACTGTGATTCACATGTTAGATGTTTTCTCGCCCGGAGTCACCTAGTGCAG” was tested, and the binding signal was 8330 fluorescence intensity (a.u.).
“AACTGATCTCCTCCTACTCCCCGGCCGCCGCGGCGCCGTCCGGAGTCACCTAGTGCAG” was tested, and the binding signal was 8160 fluorescence intensity (a.u.).
In the case of “CAAGCGCGCCCGCCTTCAAATTTTCGGCCAAATATTCCCGCGGAGTCACCTAGTGCAG”, the binding signal is reported as 8390 fluorescence intensity (a.u.).
For “ACATGCCTGCGCCTTTGACCTTCCTGTGAGATGAACACGTCGGAGTCACCTAGTGCAG”, the binding signal was 11200 fluorescence intensity (a.u.).
“CCTCCCACGCCGCCACCCGCGCCCTGATGTCCGCGTCCGTCGGAGTCACCTAGTGCAG” was tested, and the binding signal was 8250 fluorescence intensity (a.u.).
In the case of “GCATCAACCCACATCAAACATTCCACACAACATATAATTCCGGAGTCACCTAGTGCAG”, the binding signal is reported as 8860 fluorescence intensity (a.u.).
For “TCTGGAACATATCCTCTCTCCAATCACGCCCATTTCCATTCGGAGTCACCTAGTGCAG”, the binding signal was 9070 fluorescence intensity (a.u.).
With “GTAGGTGTTAATTAGCTTTAGGTGTCTTTGTTCCGCGGCCCGGAGTCACCTAGTGCAG” the binding signal was 8270 fluorescence intensity (a.u.).
For “TCGGTTTGTCAGTTTCTCTGTTCTTTTTTACTGGATTGCACGGAGTCACCTAGTGCAG”, the binding signal was 10500 fluorescence intensity (a.u.).
With “ACACGACCCAAATACACTAGTGCGCTGACTGTTTTTTTACCGGAGTCACCTAGTGCAG” the binding signal was 8590 fluorescence intensity (a.u.).
With “CCCGGCTCATATTCTTCTATGATAATACATGATTATCTAACGGAGTCACCTAGTGCAG” the binding signal was 11300 fluorescence intensity (a.u.).
In the case of “GCTGCTACTTTTTTTTTAAACTCTAAAAACATCTTGGCTACGGAGTCACCTAGTGCAG”, the binding signal is reported as 8850 fluorescence intensity (a.u.).
In the case of “AATCCACACCTTGTTGTGGTGCTAACTGCTGCATGCCTTTCGGAGTCACCTAGTGCAG”, the binding signal is reported as 9940 fluorescence intensity (a.u.).
In the case of “GTACAGTGACAGCCCATCTCCTCCACCTCGCCGTCGTTGTCGGAGTCACCTAGTGCAG”, the binding signal is reported as 10600 fluorescence intensity (a.u.).
“TCTTGAATTTCCCGTTCACTAGTATTTCGTGAGACATATACGGAGTCACCTAGTGCAG” was tested, and the binding signal was 8490 fluorescence intensity (a.u.).
In the case of “AACATCTTTTTCCGTCCCGAACACAACCTAACAACTTTTCCGGAGTCACCTAGTGCAG”, the binding signal is reported as 9600 fluorescence intensity (a.u.).
With “CAAGTTTGTGTACTGCAGTTTGTGCTTTGCAAGTTCTTGTCGGAGTCACCTAGTGCAG” the binding signal was 9340 fluorescence intensity (a.u.).
“GAACATGTGAAGGTTTTCTTTAGTACTAGTATTTTTTTTGCGGAGTCACCTAGTGCAG” was tested, and the binding signal was 8080 fluorescence intensity (a.u.).
With “AGCTAGGAAGGGGAGGGGCAGTGGTGGTGGTAGCTGCATCCGGAGTCACCTAGTGCAG” the binding signal was 10900 fluorescence intensity (a.u.).
With “GGTGCACTCCTGATCCTTCTTCTCTCTGTGCCAATTTATACGGAGTCACCTAGTGCAG” the binding signal was 8500 fluorescence intensity (a.u.).
In the case of “CGTTTTTACCCTATACTCGCACAGTCCAACCACACCACGCCGGAGTCACCTAGTGCAG”, the binding signal is reported as 8800 fluorescence intensity (a.u.).
In the case of “CCATACTTTCCGTCCAGATAATTGTCCAGTCCAAAGACACCGGAGTCACCTAGTGCAG”, the binding signal is reported as 8560 fluorescence intensity (a.u.).
For “ATCACCCCGCCCAACTCCGTTACACAGAGCCGCCGCCGTCCGGAGTCACCTAGTGCAG”, the binding signal was 10000 fluorescence intensity (a.u.).
In the case of “TTCGTTGACCAAGTTTAATTCAAATTCAATTCAATTTTAACGGAGTCACCTAGTGCAG”, the binding signal is reported as 9760 fluorescence intensity (a.u.).
With “GGGTACTACTCCCAGCTCGCCTCCATGCCGCTCAAGTCCGCGGAGTCACCTAGTGCAG” the binding signal was 8600 fluorescence intensity (a.u.).
In the case of “TATTGGCTATCCGTGCTGGAATCCTGAACCCTTTACCTCTCGGAGTCACCTAGTGCAG”, the binding signal is reported as 8050 fluorescence intensity (a.u.).
With “GCTGGCCCACTCTACGTAACCTGTTACCTGCAGCCTCCTTCGGAGTCACCTAGTGCAG” the binding signal was 9440 fluorescence intensity (a.u.).
“AACTCACTGGAACAGATCCAATGCCTTCTTACTCCCTTTTCGGAGTCACCTAGTGCAG” was tested, and the binding signal was 8690 fluorescence intensity (a.u.).
In the case of “TTGAGTTGTTGGGCTGGGCAGTTGGGCTTCCTTATTGGGTCGGAGTCACCTAGTGCAG”, the binding signal is reported as 10100 fluorescence intensity (a.u.).
“TGTTCTCCTACAGTCTCATCACCGATTGCTACTCCTATTACGGAGTCACCTAGTGCAG” was tested, and the binding signal was 10500 fluorescence intensity (a.u.).
With “GGTATTGGACTATTGGTCCTTTTCCTTCACTTATCCGGTTCGGAGTCACCTAGTGCAG” the binding signal was 8390 fluorescence intensity (a.u.).
With “TTTCTCTTCTTTTTTCTTTATTCGCTAATTATTTGCGGGGCGGAGTCACCTAGTGCAG” the binding signal was 11900 fluorescence intensity (a.u.).
With “CTTCCGTCTCCATCTCCACCACCACCACCACCACGGCCACCGGAGTCACCTAGTGCAG” the binding signal was 9520 fluorescence intensity (a.u.).
“ACGTACGTTACGTTTCTCCCATCCCACCCCATGTTCTTGCCGGAGTCACCTAGTGCAG” was tested, and the binding signal was 11400 fluorescence intensity (a.u.).
For “ACTCCAGCCGATTCTTACTCTGTTCTCAAATCGATCTCTGCGGAGTCACCTAGTGCAG”, the binding signal was 8490 fluorescence intensity (a.u.).
